Data source: PubChem BioAssay AID1259405 (NCATS, 2018)
Shown is an unselected part of about 50,000 deposited reagents. In the full data, about 4,000 (8%) got an active call. 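Mouse siRNA library applied to hamster cells; one well for each siRNA.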 Unmarked entries are inactive. Reagents against one gene are numbered here.

- Aim: 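Mouse-designed siRNAs used to find CHO productivity engineering targets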 (primary screen)
- Cells: Chinese hamster CHO-K1 ovary cells with stable secreted eGFP expression
- Reagents: single siRNA against mouse genes, 0.8 pmol siRNA per well (2 µl of 400 nM stock)
- Duration: 3 days
- Measurement: 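Per-well intracellular GFP measured by laser scanning cytometry, plus viability from ATP luminescence, each relative to plate median of non-targeting control wells, in %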
- Scale: GFP, % of control: higher = more GFP per well, higher productivity; viability (ATP), % of control: higher = more viable cells (more ATP)
- Rule for the call: 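Called active when intracellular GFP, relative to negative control, is at or above 120%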

gene | reagent no. | GFP, % of control | viability (ATP), % of control
Pnma2 | 1 | 112 | 71.9
Pnma2 | 2 | 69.3 | 76.3
Pnma2 | 3 | 79.1 | 80.6
Plcd3 | 1 | 56.1 | 65.1
Plcd3 | 2 | 61.5 | 56.7
Plcd3 | 3 | 96.6 | 54.1
Plekha6 | 1 | 75.2 | 78.8
Plekha6 | 2 | 91.4 | 40.4
Plekha6 | 3 | 55.4 | 49.7
Cd244a | 1 | 88.8 | 59.4
Cd244a | 2 | 54.2 | 29.8
Cd244a | 3 | 66.7 | 51.1
Gp9 | 1 | 145 (active) | 99.9
Gp9 | 2 | 56 | 58.3
Tmsb10 | 1 | 74.4 | 74.6
Tmsb10 | 2 | 88.1 | 74.5
Tmsb10 | 3 | 116 | 105
Ocm | 1 | 108 | 94.7
Ocm | 2 | 45.1 | 55.4
Nrxn2 | 1 | 69.8 | 89.7
Nrxn2 | 2 | 72.5 | 96.7
Nrxn2 | 3 | 86.6 | 89.6
Orm1 | 1 | 93.3 | 42.1
Orm1 | 2 | 36 | 94.7
Orm1 | 3 | 72.5 | 71.2
Gm6787 | 1 | 147 (active) | 118
Gm6787 | 2 | 57.5 | 55.7
Gm6787 | 3 | 84.5 | 102
Sox18 | 1 | 60.9 | 62.6
Sox18 | 2 | 67.6 | 79
Sox18 | 3 | 94.1 | 78.8
Alg9 | 1 | 135 (active) | 90.4
Alg9 | 2 | 111 | 107
Alg9 | 3 | 98.3 | 98

Reformatted: 2 of the entries above
gene,reagent no.,"GFP, % of control","viability (ATP), % of control"
Plekha6,3,55.4,49.7
Cd244a,1,88.8,59.4
